Laboratory results reported in paper PMC4726530 (PLoS ONE, 2016).
No constants are given. Whether binding was seen depends on the method and setting. Binding seen in cells or lysates may run through a third protein. Binding calls can cover weak binding; strength is not graded here.

By UniProt entry, the sequences of proteins in these tests, tags left out. Where a name states a change or a piece, a line headed by the entry shows the natural chain unless it says otherwise.
UniProt F9VNL4: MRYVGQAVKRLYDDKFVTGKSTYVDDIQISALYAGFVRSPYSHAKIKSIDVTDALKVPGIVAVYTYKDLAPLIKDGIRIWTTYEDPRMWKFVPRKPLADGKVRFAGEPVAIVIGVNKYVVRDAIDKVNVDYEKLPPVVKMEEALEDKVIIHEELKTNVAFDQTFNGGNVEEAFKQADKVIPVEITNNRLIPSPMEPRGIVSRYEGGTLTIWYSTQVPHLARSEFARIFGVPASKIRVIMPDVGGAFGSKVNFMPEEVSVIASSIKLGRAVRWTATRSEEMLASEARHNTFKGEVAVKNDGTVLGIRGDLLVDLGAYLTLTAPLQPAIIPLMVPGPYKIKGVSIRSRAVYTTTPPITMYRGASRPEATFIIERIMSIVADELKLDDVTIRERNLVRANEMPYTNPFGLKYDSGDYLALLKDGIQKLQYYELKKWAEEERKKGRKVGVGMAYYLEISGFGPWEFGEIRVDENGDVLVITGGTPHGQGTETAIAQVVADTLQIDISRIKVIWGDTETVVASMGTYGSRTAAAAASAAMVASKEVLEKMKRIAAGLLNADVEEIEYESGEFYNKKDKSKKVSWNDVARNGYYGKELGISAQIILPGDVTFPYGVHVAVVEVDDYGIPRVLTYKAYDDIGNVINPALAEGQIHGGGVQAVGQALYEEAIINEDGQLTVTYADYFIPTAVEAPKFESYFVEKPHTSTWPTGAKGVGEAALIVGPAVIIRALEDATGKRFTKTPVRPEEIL
UniProt F9VNL5: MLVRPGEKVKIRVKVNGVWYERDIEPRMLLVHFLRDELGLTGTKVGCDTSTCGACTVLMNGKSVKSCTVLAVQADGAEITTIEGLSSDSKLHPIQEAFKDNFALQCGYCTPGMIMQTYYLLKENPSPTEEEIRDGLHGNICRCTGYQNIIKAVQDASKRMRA
UniProt F9VNL6: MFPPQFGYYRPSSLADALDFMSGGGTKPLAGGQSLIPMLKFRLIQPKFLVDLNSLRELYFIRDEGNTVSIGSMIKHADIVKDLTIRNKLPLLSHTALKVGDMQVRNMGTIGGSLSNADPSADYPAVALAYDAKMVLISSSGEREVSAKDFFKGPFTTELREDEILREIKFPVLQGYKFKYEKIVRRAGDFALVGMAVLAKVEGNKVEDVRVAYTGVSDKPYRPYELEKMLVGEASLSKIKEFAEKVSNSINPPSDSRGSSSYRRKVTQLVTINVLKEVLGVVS

Target: STK17810, molybdo-pyranopterin L-subunit of glyceraldehyde oxidoreductase GAOR1 (Sulfolobus tokodaii (endogenous, purified from the cells)) (UniProt F9VNL4)
Assay: co-purification through successive chromatographies, subunits identified by SDS-PAGE and N-terminal sequencing; GA-oxidizing activity followed from S. tokodaii cell-free extract over DE52, Butyl Toyopearl, Q-Sepharose, hydroxyapatite and Superdex 200 at room temperature; bands of the purified enzymes blotted and sequenced

| binding | Substance |
| --- | --- |
| binds | STK17820, iron-sulfur S-subunit of glyceraldehyde oxidoreductase GAOR1 (from UniProt F9VNL5) |
| binds | STK17830, flavin M-subunit of glyceraldehyde oxidoreductase GAOR1 (from UniProt F9VNL6) |
